Measurements from US20090149377.
The exact form of at least one protein or probe is not confirmed. Where cells or extracts were used, other partners may take part. For part of these data: Where a protein sequence is shown, tags need not be part of it.

What was measured:
Experiment in all cases: pull-down
[1] = target: ATP-dependent RNA helicase A (RHA/DDX9) (Homo sapiens) (UniProt Q08211); settings: MCF7 extract, mass spectrometry; may be indirect; protein in an extract; label: biotin
[2] = target: CSDA protein (Homo sapiens) (UniProt P16989); settings: MCF7 extract, mass spectrometry; may be indirect; protein in an extract; label: biotin
[3] = target: T1, GTP-binding like protein 2 (Homo sapiens) (UniProt Q9BX10); settings: MCF7 extract, mass spectrometry; may be indirect; protein in an extract; label: biotin
T1 sequence (looked up, limits assumed): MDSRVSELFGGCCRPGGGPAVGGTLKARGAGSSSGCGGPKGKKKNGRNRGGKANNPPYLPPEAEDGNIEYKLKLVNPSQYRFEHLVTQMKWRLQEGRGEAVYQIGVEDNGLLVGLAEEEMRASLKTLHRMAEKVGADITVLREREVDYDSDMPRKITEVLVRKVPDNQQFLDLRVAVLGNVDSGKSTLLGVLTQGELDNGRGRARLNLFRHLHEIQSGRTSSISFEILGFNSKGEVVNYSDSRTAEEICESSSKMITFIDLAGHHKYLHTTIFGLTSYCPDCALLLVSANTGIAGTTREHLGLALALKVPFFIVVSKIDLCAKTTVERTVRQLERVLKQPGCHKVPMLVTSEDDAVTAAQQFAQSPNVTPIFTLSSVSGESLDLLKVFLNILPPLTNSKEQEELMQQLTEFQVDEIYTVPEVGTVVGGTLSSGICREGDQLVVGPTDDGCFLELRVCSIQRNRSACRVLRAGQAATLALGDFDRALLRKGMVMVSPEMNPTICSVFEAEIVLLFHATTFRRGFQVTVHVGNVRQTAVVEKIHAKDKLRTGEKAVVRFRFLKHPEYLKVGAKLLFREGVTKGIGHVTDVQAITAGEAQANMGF

Gemin5 (Homo sapiens) = Gemin5 (Homo sapiens) (UniProt Q8TEQ6); settings: MCF7 extract, mass spectrometry; may be indirect; protein in an extract; label: biotin
HRX (Homo sapiens) = HRX (Homo sapiens) (UniProt Q03164); settings: MCF7 extract, mass spectrometry; may be indirect; protein in an extract; label: biotin
[4] = target: IGF-II mRNA-binding protein 3 (IMP-3) (Homo sapiens) (UniProt O00425); settings: MCF7 extract, mass spectrometry; may be indirect; protein in an extract; label: biotin
Ku70 (Homo sapiens) = Ku70 (Homo sapiens) (UniProt P12956); settings: MCF7 extract, mass spectrometry; may be indirect; protein in an extract; label: biotin
Ku80 (Homo sapiens) = Ku80 (Homo sapiens) (UniProt P13010); settings: MCF7 extract, mass spectrometry; may be indirect; protein in an extract; label: biotin
NSAP (Homo sapiens) = target: T2, NSAP (Homo sapiens) (UniProt O60506); settings: MCF7 extract, mass spectrometry; may be indirect; protein in an extract; label: biotin
T2 sequence (looked up, limits assumed): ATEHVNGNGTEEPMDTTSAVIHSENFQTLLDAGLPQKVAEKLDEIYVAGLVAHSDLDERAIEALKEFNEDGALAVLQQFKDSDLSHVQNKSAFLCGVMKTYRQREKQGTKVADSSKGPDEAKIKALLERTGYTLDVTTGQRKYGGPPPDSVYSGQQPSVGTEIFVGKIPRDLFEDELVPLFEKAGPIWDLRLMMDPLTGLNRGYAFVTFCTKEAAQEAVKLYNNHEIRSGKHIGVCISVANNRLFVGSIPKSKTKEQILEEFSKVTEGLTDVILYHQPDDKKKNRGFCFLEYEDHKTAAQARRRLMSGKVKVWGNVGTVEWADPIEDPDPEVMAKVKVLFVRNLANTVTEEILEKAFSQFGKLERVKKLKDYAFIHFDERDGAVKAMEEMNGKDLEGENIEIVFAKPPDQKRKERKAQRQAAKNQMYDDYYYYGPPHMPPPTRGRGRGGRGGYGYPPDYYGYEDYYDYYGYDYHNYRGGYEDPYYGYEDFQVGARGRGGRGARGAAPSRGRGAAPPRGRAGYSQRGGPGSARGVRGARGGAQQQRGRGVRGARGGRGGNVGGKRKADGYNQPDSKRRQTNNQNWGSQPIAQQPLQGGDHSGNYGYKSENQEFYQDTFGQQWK

PKR (Homo sapiens) = PKR (Homo sapiens) (UniProt P19525); settings: MCF7 extract, mass spectrometry; may be indirect; protein in an extract; label: biotin
RPL26 (Homo sapiens) = RPL26 (Homo sapiens) (UniProt P61254); settings: MCF7 lysate; binding increased after irradiation; protein in an extract; label: biotin
[5] = target: TRBP isoform a (Homo sapiens) (UniProt Q15633); settings: MCF7 extract, mass spectrometry; may be indirect; protein in an extract; label: biotin
YB-1 (Homo sapiens) = YB-1 (Homo sapiens) (UniProt P67809); settings: MCF7 extract, mass spectrometry; may be indirect; protein in an extract; label: biotin
[6] = target: casein kinase 1, gamma 2 (Homo sapiens) (UniProt P78368); settings: MCF7 extract, mass spectrometry; may be indirect; protein in an extract; label: biotin
eEF1A-1 (Homo sapiens) = target: T3, eEF1A-1 (Homo sapiens) (UniProt P68104); settings: MCF7 extract, mass spectrometry; may be indirect; protein in an extract; label: biotin
T3 sequence (looked up, limits assumed): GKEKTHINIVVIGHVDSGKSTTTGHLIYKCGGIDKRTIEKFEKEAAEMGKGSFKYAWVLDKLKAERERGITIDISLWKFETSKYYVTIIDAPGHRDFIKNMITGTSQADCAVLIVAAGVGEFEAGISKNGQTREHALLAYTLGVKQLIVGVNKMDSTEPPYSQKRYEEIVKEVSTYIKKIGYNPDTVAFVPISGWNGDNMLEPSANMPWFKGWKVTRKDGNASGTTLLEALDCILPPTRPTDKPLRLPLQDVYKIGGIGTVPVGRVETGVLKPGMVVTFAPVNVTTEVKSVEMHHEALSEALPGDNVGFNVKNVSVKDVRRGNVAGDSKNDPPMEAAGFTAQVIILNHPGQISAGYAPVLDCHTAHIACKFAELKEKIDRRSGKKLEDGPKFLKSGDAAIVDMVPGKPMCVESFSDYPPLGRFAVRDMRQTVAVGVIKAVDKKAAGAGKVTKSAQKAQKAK

[7] = tested on: heat shock cognate protein 54 (HSC54) (Homo sapiens); settings: MCF7 extract, mass spectrometry; may be indirect; protein in an extract; label: biotin
[8] = tested on: hepatocellular carcinoma autoantigen (Homo sapiens); settings: MCF7 extract, mass spectrometry; may be indirect; protein in an extract; label: biotin
hnRNPU (Homo sapiens) = hnRNPU (Homo sapiens) (UniProt Q00839); settings: MCF7 extract, mass spectrometry; may be indirect; protein in an extract; label: biotin
nucleolin (Homo sapiens) = nucleolin (Homo sapiens) (UniProt P19338); settings: MCF7 extract; direct binding not distinguished from complex; unchanged after IR; protein in an extract; label: biotin
[9] = target: ribonucleoprotein La (Homo sapiens) (UniProt P05455); settings: MCF7 extract, mass spectrometry; may be indirect; protein in an extract; label: biotin
[10] = tested on: similar to TSEP-1 (Homo sapiens); settings: MCF7 extract, mass spectrometry; may be indirect; protein in an extract; label: biotin
[11] = target: T4, staufen protein (Homo sapiens) (UniProt O95793); settings: MCF7 extract, mass spectrometry; may be indirect; protein in an extract; label: biotin
T4 sequence (looked up, limits assumed): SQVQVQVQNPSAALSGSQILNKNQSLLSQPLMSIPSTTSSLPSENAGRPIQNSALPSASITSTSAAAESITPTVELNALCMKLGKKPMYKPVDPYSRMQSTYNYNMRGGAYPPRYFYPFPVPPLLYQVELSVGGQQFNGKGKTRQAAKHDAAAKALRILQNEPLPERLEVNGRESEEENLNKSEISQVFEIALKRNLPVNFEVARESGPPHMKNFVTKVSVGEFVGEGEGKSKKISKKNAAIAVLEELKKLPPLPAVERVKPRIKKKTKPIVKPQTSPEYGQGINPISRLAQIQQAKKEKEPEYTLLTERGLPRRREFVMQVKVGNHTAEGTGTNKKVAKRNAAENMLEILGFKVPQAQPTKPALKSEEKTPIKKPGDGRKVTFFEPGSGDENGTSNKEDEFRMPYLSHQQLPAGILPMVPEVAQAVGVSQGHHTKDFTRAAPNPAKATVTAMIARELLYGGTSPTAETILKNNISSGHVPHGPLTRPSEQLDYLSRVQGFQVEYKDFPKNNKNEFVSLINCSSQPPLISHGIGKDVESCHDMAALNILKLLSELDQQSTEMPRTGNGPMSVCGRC

[12] = target: transcription factor NF-AT (Homo sapiens) (UniProt Q12905); settings: MCF7 extract, mass spectrometry; may be indirect; protein in an extract; label: biotin
[13] = target: transcription intermediary factor 1-beta (Homo sapiens) (UniProt Q13263); settings: MCF7 extract, mass spectrometry; may be indirect; protein in an extract; label: biotin
[14] = tested on: translation control protein 80 (TCP80) (Homo sapiens); settings: MCF7 extract, mass spectrometry; may be indirect; protein in an extract; label: biotin
tuberin (Homo sapiens) = tuberin (Homo sapiens) (UniProt P49815); settings: MCF7 extract, mass spectrometry; may be indirect; protein in an extract; label: biotin
[15] = target: zinc-finger DNA-binding protein (Homo sapiens) (UniProt Q13029); settings: MCF7 extract, mass spectrometry; may be indirect; protein in an extract; label: biotin

Measured: binding result

GGUUUUCCCCUCCCAUGUGCUCAAGACUGGCGCUAAAAGUUUUGAGCUUCUCAAAAGUCUAGAGCCACCGUCCAGGGAGCAGGUAGCUGCUGGGCUCCGGGGACACUUUGCGUUCGGGCUGGGAGCGUGCUUUCCACGACGGUGACACGCUUCCCUGGAUUGGCAGCCAGACUGCCUUCCGGGUCACUGCCAU [p53 5'UTR (biotinylated)]
binds: [1] | [2] | [3] | Gemin5 (Homo sapiens) | HRX (Homo sapiens) | [4] | Ku70 (Homo sapiens) | Ku80 (Homo sapiens) | NSAP (Homo sapiens) | PKR (Homo sapiens) | RPL26 (Homo sapiens) | [5] | YB-1 (Homo sapiens) | [6] | eEF1A-1 (Homo sapiens) | [7] | [8] | hnRNPU (Homo sapiens) | nucleolin (Homo sapiens) | [9] | [10] | [11] | [12] | [13] | [14] | tuberin (Homo sapiens) | [15]
